PubChem BioAssay AID652272 | Drosophila RNAi Screening Center, 2013

Aim: 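Genes whose knock-down decreases or increases Hedgehog reporter output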 (primary screen)
Cell system: Drosophila clone 8 (Cl8) cells
Reagent: long dsRNA against Drosophila genes
Read-out: 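Plate reader light from a firefly reporter under a ptc promoter fragment that responds to Hedgehog, with Renilla light as transfection reference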
Direction: firefly Hh reporter signal: higher = more ptc reporter light; Renilla reference signal: higher = more Renilla control light
Rule for the call: 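Called a hit if the two-replicate mean z-score lies below -2 or above +3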
Calls: active = hit: reporter lowered or raised; inactive = not a hit
The deposit covers about 21,000 reagents; this is an unselected part of those with a known target gene and a result. Of all reagents, 503 (2.4%) got an active call. 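Raw plate light values, not normalised; calls rest on replicate z-scores that were not deposited; hits include reporter decreases as well as increases.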 A number with no mark means an inactive call. Names joined by + are all predicted targets of the reagent. Not given: the amount of reagent, the time to read-out.

| Gene | dsRNA | firefly Hh reporter signal, replicate 1 | firefly Hh reporter signal, replicate 2 | firefly Hh reporter signal, replicate 3 | Renilla reference signal, replicate 1 | Renilla reference signal, replicate 2 |
| --- | --- | --- | --- | --- | --- | --- |
| Vhl | DRSC07716 | 58263 | 31895 | – | 1705 | 2688 |
| ssp2 | DRSC11052 | 1.05e5 | 38509 | – | 3792 | 1542 |
| CG13239 | DRSC11694 | 75442 | 1.07e5 | – | 2490 | 2808 |
| vvl | DRSC11409 | 54880 | 53826 | – | 5819 | 3547 |
| CG2076 | DRSC19832 | 78744 | 1.72e5 | – | 2195 | 6486 |
| Gpdh3 | DRSC15325 | 9.79e5 | 1.95e5 | – | 43491 | 4987 |
| DIP2 | DRSC08582 | 81857 | 85576 | – | 4423 | 3545 |
| Snmp1 | DRSC16168 | 5.56e5 | 94076 | – | 27622 | 502 |
| CG14739 | DRSC14959 | 91840 | 1.44e5 | – | 2333 | 4144 |
| exex | DRSC10972 | 41840 | 59828 | – | 5968 | 4274 |
| twz | DRSC04069 | 66104 | 41164 | – | 1968 | 3571 |
| Liprin-gamma | DRSC04093 | 5.83e5 | 89571 | – | 3901 | 3901 |
| Hsc70-1 | DRSC11185 | 47716 | 33187 | 23416 | 2512 | 514 |

A run of entries taken from the entries so far, as a working copy:
| Gene | dsRNA | firefly Hh reporter signal, replicate 1 | firefly Hh reporter signal, replicate 2 | firefly Hh reporter signal, replicate 3 | Renilla reference signal, replicate 1 | Renilla reference signal, replicate 2 |
| --- | --- | --- | --- | --- | --- | --- |
| twz | DRSC04069 | 66104 | 41164 | – | 1968 | 3571 |
| Liprin-gamma | DRSC04093 | 5.83e5 | 89571 | – | 3901 | 3901 |

The listing continues.
| Gene | dsRNA | firefly Hh reporter signal, replicate 1 | firefly Hh reporter signal, replicate 2 | firefly Hh reporter signal, replicate 3 | Renilla reference signal, replicate 1 | Renilla reference signal, replicate 2 |
| --- | --- | --- | --- | --- | --- | --- |
| CG13733 | DRSC10061 | 1.15e5 | – | – | 3778 | 3413 |
| CG11456 | DRSC11665 | 66521 | 40998 | – | 2480 | 1735 |
| RpS29 + snoRNA:Psi18S-1275 | DRSC16433 | 29760 | 45837 | – | 1328 | 2091 |
| CG17768 + LSm-4 | DRSC02845 | 93799 | 41660 | – | 2627 | 4001 |
| snz | DRSC17969 | 58908 | 2.67e5 | – | 1809 | 10008 |
| CG14817 | DRSC18547 | 87437 | 2.42e5 | – | 3757 | 8067 |
| CG31200 | DRSC15285 | 5.12e5 | 76802 | – | 27309 | 5419 |
| CG7519 | DRSC11834 | 70747 | 1.01e5 | – | 2214 | 2400 |
| CG34348 | DRSC19425 | 73090 | 2.04e5 | – | 2739 | 7458 |
| CG34348 | DRSC19644 | 73732 | 1.81e5 | – | 2530 | 7424 |
